These are yes or no findings as the source states them, for the method shown. For some of these results: Binding calls can cover weak binding; strength is not graded here.

For assay [1], the target named is Integrator subunit INTS7 (human) (UniProt Q9NVH2). The experiment in a line: condition: only free Integrator–PP2A–SOSS complex without the PEC (closed conformation); cryo-EM structure; free Integrator–PP2A complex in the closed conformation, from the free Integrator–PP2A–SOSS sample without the PEC; glycerol-gradient peak cross-linked with 0.2% glutaraldehyde; 3.1 Å; both purified.

The target is the same in assay [2]. The assay can be described thus: cryo-EM structure; post-termination complex (Integrator–PP2A–SOSS–CTD), a class of particles from the PEC–Integrator–PP2A–SOSS sample; glycerol-gradient peak cross-linked with 0.2% glutaraldehyde; 3.7 Å; both purified.
The target in assay [3] is PP2A-C (human) (UniProt P67775). The experiment in a line: cryo-EM structure; free Integrator–PP2A complex in the closed conformation, from the free Integrator–PP2A–SOSS sample without the PEC; glycerol-gradient peak cross-linked with 0.2% glutaraldehyde; 3.1 Å; both purified.
Assay [4] shares this target. The assay can be described thus: cryo-EM structure; pre-termination complex (PEC–Nuc–Integrator–PP2A): preformed Integrator–PP2A with INTS11(E203Q) and NELF added to the stalled Pol II–DSIF–Nuc complex; glycerol-gradient peak cross-linked with 0.2% glutaraldehyde; overall resolution 4.1 Å; both purified.

Take “Integrator subunit INTS3 (from UniProt Q68E01)”: the binding entry was “no binding” in assay [1] and “binds” in assay [2].

Regarding “Integrator subunit INTS6 (from UniProt Q9UL03 1-887)”, the binding result in assay [3] and in assay [4] was “binds” each time.
